No constants are given. Whether binding was seen depends on the method and setting. Binding seen in cells or lysates may run through a third protein. Some binding calls cover weakened binding; strength is not graded here.
Molecular target: T1, Wnt11 (neonatal mouse heart) (mouse (endogenous in neonatal mouse heart)) (UniProt P48615)
T1 sequence: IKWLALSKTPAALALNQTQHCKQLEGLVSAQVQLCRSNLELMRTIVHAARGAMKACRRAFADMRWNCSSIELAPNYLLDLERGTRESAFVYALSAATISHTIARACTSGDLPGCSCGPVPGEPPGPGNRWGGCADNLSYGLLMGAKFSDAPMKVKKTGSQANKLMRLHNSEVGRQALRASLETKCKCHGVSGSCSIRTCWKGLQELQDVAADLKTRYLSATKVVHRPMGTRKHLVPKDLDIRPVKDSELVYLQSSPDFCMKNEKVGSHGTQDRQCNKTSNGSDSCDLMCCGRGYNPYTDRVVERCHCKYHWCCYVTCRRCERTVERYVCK
Assay: co-IP

B1: Frizzled 4 (neonatal mouse heart) (receptor, UniProt Q61088 37-537)
chain: FGDEEERRCDPIRIAMCQNLGYNVTKMPNLVGHELQTDAELQLTTFTPLIQYGCSSQLQFFLCSVYVPMCTEKINIPIGPCGGMCLSVKRRCEPVLREFGFAWPDTLNCSKFPPQNDHNHMCMEGPGDEEVPLPHKTPIQPGEECHSVGSNSDQYIWVKRSLNCVLKCGYDAGLYSRSAKEFTDIWMAVWASLCFISTTFTVLTFLIDSSRFSYPERPIIFLSMCYNIYSIAYIVRLTVGRERISCDFEEAAEPVLIQEGLKNTGCAIIFLLMYFFGMASSIWWVILTLTWFLAAGLKWGHEAIEMHSSYFHIAAWAIPAVKTIVILIMRLVDADELTGLCYVGNQNLDALTGFVVAPLFTYLVIGTLFIAAGLVALFKIRSNLQKDGTKTDKLERLMVKIGVFSVLYTVPATCVIACYFYEISNWALFRYSADDSNMAVEMLKIFMSLLVGITSGMWIWSAKTLHTWQKCSNRLVNSGKVKREKRGNGWVKPGKGNETVV
With B1 the binding was “binds”.

From article doi:10.1101/2025.06.01.657323
